Measurements reported in the supplement of paper PMC10849652.
This is one part of the list.

The chains behind the UniProt entries cited, without tags or fusion partners. Where a name states a change or a piece, a line headed by the entry shows the natural chain unless it says otherwise.
UniProt O95793: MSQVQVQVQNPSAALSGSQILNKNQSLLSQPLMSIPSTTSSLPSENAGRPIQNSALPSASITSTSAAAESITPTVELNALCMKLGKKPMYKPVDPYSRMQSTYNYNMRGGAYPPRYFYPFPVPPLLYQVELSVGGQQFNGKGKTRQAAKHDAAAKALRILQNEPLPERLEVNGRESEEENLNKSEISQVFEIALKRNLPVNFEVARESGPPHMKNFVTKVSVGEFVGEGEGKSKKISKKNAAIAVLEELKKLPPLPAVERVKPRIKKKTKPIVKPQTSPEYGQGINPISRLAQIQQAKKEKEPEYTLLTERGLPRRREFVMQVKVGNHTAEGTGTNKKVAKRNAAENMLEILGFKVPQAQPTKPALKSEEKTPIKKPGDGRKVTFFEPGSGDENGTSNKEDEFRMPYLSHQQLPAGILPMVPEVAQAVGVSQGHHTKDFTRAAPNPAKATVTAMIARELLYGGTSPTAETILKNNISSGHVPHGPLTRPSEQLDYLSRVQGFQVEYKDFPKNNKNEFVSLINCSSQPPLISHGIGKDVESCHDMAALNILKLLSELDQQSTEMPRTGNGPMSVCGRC
UniProt Q96DR4, whole entry, looked up: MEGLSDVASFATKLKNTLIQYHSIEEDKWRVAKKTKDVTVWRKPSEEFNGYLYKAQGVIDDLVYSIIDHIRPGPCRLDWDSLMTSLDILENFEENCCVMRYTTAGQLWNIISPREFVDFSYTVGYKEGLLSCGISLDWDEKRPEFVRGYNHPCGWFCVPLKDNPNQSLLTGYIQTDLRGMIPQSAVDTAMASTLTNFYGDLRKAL
UniProt P35325: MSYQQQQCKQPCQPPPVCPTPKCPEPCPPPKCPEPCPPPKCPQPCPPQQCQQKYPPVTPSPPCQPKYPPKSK
UniProt Q9H040: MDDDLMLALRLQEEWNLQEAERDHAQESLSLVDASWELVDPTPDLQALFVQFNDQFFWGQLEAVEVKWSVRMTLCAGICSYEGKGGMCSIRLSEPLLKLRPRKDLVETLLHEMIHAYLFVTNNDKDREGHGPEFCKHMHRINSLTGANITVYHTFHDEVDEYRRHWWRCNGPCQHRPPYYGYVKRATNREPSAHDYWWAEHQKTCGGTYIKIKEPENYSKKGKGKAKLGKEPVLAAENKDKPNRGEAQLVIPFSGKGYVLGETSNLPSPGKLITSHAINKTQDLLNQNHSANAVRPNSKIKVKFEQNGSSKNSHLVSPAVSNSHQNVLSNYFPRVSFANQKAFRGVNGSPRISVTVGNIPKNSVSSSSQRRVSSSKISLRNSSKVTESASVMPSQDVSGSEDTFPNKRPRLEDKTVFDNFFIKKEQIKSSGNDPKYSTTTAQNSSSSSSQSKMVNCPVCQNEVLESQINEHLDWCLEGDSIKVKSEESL
UniProt O43278: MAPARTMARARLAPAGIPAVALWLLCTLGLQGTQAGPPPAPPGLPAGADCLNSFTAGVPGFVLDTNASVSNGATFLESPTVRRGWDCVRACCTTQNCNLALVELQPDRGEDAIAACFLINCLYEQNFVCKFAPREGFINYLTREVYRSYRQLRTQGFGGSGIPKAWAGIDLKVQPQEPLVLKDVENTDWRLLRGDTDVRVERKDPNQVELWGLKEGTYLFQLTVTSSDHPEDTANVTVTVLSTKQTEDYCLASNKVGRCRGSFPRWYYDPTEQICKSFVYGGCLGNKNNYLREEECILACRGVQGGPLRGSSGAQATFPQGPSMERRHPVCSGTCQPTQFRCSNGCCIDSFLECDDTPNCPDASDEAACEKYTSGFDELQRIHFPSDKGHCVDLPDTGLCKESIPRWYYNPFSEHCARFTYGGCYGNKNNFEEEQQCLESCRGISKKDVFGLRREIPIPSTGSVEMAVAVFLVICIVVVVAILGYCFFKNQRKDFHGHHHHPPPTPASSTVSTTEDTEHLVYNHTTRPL
UniProt Q01082, whole entry, looked up: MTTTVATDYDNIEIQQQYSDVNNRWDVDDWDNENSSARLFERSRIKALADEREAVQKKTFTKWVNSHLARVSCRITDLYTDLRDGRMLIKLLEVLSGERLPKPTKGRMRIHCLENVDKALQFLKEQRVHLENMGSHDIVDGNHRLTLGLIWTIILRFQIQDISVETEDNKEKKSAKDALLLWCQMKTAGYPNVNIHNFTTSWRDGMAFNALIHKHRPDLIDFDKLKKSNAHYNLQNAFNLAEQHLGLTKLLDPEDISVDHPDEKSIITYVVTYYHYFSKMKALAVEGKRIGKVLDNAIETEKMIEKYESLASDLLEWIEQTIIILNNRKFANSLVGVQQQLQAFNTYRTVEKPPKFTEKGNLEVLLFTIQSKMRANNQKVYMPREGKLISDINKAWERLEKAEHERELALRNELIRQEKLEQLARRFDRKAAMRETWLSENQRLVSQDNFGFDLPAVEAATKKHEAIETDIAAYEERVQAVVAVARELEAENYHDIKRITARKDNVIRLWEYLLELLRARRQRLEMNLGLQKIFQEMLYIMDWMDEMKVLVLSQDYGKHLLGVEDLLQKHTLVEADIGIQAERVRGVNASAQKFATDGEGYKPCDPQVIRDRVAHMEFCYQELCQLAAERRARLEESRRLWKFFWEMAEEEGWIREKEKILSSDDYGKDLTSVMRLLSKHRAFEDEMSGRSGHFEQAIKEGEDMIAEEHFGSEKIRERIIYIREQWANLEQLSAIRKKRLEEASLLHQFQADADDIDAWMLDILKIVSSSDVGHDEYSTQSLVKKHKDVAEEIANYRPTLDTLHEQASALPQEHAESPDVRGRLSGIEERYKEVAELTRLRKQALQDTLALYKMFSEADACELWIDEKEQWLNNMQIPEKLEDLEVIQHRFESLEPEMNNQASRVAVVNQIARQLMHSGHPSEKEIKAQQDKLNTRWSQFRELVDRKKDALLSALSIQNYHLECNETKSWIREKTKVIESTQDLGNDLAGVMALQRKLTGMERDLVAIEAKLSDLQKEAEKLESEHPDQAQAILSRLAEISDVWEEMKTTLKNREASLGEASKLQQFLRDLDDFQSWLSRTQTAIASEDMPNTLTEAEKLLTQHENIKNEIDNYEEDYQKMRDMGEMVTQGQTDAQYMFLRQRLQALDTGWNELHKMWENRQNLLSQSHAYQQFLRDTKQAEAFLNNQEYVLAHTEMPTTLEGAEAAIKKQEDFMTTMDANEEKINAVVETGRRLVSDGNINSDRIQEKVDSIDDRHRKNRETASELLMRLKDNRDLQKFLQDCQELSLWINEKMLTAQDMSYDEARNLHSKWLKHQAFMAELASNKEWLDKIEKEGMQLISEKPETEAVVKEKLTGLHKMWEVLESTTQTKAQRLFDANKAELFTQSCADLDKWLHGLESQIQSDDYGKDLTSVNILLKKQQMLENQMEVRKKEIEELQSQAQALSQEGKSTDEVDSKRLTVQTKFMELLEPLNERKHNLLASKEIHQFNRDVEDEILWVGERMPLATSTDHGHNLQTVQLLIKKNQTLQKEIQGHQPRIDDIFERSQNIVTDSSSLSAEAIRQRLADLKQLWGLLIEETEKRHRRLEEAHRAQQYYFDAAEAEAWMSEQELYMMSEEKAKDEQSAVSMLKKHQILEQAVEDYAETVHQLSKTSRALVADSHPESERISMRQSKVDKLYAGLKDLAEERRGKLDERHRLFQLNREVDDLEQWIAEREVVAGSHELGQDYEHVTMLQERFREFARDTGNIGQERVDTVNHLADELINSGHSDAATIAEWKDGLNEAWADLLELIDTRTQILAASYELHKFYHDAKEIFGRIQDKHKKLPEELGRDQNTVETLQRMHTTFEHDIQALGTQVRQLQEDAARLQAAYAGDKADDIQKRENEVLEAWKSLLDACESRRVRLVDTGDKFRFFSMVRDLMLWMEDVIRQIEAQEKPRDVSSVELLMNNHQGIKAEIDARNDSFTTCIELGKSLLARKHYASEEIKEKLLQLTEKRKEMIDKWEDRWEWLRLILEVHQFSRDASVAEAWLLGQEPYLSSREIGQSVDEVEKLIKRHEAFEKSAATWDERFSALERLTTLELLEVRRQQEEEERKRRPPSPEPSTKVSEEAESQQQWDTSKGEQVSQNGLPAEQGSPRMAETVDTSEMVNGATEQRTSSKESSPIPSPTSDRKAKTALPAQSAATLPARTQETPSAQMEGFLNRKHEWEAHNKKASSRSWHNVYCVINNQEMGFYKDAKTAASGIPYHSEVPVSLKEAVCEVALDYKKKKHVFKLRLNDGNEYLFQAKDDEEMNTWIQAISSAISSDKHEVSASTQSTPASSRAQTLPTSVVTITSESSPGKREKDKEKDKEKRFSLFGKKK
UniProt Q8N9Q2: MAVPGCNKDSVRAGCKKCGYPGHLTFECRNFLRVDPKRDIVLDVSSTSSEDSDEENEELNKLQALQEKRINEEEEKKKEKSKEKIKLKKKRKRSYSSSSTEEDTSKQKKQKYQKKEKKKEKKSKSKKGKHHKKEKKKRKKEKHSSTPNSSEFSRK

Key:
Assay in all cases: log2 fold change, soluble protein after heating vs DMSO (PISA); higher = thermal stabilisation; K562 lysate, 10 uM; active = over 0.2 and 3.5 SD of the protein, either way, in both replicates (recomputed)
vorinostat = compound: O=C(CCCCCCC(=O)Nc1ccccc1)NO [vorinostat]
Outline: (§1)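 Soluble protein was defined as the supernatant remaining after 21,000xg for 90 min, following pooling of heated aliquots and adjustment to 0.5% NP-40 at 4°C. Before that, crude K562 extract at 1 mg/mL protein in PBS pH 7.4 with 1 mM MgCl2 was treated with 10 μM compound for 30 min and heated for 3 min across 48°C-58°C. Quantification used TMTpro 16plex LC-MS/MS with channel sums equalised, and values are log-two fold changes in thermal stability relative to solvent controls from duplicates.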

silmitasertib = compound: O=C(O)c1ccc2c(c1)nc(Nc1cccc(Cl)c1)c1ccncc12 [silmitasertib]
Outline: as §1

[1] = compound: O=C1NC(=O)C(c2cnc3ccccn23)=C1c1cn2c3c(cc(F)cc13)CN(C(=O)N1CCCCC1)CC2
Outline: as §1

entospletinib = compound: c1cn2cc(-c3ccc4cn[nH]c4c3)nc(Nc3ccc(N4CCOCC4)cc3)c2n1 [entospletinib]
Outline: as §1

[2] = compound: NCC(=O)Nc1ccc(-n2nc(C(F)(F)F)cc2-c2ccc3c(ccc4ccccc43)c2)cc1
Outline: as §1

Measured: log2 fold change

STAU1 isoform 3 (UniProt O95793)
inactive: vorinostat -0.076 | silmitasertib -0.103 | [1] -0.156

STARD4 (UniProt Q96DR4)
inactive: entospletinib -0.166

SPRR2B (UniProt P35325)
inactive: vorinostat -0.069 | silmitasertib 0.05 | [1] 0.194 | entospletinib -0.019

SPRTN (UniProt Q9H040)
inactive: [2] 0.108 | entospletinib -0.048

SPINT1 (UniProt O43278)
inactive: vorinostat 0.121 | silmitasertib -0.063 | [1] 0.059

SRC isoform 2 (UniProt P12931)
inactive: vorinostat 0.073 | silmitasertib -0.069 | entospletinib -0.111

SPTBN1 isoform 3 (UniProt Q01082)
inactive: vorinostat -0.012 | silmitasertib 0.204 | [1] -0.048 | entospletinib -0.129

SREK1IP1 (UniProt Q8N9Q2)
inactive: vorinostat 0.009 | silmitasertib -0.01 | [1] -0.053 | entospletinib -0.035
